In the supplement of paper PMC11732987, “Enantioselective OTUD7B fragment discovery through chemoproteomics screening and high-throughput optimisation” (Communications Chemistry, 2025):
The other results are listed elsewhere or left out. The data scatter; read single values as rough.

By UniProt entry, the sequences of proteins in these tests, tags left out. Where a name states a change or a piece, a line headed by the entry shows the natural chain unless it says otherwise. Residues count along the entry.
UniProt Q9NV70: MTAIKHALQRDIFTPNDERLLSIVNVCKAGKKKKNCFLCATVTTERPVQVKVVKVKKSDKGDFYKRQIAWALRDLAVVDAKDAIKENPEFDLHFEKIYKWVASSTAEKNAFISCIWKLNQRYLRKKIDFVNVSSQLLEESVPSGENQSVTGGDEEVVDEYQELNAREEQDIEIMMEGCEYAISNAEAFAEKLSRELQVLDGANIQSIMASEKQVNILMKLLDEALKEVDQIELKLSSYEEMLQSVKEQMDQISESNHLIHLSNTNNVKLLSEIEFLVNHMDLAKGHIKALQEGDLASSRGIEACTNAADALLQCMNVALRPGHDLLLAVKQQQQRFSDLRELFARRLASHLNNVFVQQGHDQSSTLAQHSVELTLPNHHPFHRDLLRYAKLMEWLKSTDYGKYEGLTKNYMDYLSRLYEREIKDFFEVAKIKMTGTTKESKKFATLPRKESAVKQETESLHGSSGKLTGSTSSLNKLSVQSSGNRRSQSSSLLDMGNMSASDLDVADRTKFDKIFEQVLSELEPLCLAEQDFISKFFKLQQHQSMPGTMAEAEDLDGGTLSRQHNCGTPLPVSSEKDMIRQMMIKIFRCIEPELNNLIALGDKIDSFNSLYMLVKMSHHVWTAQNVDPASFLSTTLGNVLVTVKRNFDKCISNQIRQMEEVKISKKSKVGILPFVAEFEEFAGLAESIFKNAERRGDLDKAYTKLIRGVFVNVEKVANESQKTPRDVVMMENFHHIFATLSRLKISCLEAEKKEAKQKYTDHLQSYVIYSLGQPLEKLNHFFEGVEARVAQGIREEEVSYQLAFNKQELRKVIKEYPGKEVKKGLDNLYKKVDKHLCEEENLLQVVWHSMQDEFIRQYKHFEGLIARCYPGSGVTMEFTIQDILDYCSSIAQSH
UniProt O00471, 558-578: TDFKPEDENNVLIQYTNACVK
UniProt Q8N128: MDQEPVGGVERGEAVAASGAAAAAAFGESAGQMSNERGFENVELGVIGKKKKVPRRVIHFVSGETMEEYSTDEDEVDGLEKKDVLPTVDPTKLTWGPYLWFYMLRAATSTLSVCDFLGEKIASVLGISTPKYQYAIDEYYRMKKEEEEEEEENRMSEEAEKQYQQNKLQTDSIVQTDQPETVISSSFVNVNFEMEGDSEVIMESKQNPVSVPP
UniProt Q14674: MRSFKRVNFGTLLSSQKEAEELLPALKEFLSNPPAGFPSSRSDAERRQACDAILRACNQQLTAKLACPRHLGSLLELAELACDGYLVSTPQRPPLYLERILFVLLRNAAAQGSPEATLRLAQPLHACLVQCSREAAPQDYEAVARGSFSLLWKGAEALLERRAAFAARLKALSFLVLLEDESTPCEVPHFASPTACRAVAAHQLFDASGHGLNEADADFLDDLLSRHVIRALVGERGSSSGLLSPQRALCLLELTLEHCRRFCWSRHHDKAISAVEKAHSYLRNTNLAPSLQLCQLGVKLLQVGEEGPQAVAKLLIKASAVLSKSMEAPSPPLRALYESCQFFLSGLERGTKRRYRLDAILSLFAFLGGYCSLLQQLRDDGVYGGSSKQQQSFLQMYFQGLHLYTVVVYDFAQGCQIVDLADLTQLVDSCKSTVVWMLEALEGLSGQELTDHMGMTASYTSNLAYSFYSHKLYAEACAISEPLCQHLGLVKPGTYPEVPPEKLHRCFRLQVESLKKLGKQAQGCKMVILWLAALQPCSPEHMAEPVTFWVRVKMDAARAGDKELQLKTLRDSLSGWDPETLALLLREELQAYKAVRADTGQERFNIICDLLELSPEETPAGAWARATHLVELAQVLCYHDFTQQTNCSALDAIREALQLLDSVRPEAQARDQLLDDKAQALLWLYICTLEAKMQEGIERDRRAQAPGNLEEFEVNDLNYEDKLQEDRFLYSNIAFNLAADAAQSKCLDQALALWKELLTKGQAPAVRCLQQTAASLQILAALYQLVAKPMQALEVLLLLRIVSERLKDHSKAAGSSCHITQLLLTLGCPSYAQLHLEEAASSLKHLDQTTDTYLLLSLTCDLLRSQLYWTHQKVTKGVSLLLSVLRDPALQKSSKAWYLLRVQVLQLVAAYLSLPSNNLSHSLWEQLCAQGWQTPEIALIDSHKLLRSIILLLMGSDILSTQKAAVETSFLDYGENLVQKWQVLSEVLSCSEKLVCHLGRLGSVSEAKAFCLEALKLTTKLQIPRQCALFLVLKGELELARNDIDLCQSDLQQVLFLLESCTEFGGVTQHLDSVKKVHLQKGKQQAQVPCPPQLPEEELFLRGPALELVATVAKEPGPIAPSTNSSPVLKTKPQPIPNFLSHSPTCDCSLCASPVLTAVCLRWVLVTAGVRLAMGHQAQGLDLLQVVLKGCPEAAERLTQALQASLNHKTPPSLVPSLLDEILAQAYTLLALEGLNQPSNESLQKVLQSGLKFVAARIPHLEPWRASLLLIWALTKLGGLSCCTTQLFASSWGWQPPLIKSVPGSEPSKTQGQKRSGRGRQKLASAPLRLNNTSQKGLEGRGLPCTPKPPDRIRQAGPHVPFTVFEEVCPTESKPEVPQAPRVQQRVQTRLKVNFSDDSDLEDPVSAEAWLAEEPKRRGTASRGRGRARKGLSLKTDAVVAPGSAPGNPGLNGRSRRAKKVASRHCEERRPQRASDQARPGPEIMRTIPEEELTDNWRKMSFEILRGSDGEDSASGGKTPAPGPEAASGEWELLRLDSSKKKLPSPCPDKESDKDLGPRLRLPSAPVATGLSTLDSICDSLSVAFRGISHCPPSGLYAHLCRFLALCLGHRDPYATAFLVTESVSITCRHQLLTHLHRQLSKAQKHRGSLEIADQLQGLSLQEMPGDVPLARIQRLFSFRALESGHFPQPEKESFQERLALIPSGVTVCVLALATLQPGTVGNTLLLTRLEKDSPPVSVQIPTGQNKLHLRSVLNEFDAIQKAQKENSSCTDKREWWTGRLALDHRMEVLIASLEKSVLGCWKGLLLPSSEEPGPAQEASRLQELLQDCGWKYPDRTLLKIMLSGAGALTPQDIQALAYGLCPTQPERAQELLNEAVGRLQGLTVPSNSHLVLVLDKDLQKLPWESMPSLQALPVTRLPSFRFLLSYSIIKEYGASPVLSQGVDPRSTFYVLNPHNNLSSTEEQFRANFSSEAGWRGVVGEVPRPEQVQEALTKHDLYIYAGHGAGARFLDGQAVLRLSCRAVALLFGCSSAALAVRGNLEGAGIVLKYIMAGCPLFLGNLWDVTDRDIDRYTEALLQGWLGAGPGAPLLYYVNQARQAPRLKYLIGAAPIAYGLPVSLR
UniProt Q96GK7: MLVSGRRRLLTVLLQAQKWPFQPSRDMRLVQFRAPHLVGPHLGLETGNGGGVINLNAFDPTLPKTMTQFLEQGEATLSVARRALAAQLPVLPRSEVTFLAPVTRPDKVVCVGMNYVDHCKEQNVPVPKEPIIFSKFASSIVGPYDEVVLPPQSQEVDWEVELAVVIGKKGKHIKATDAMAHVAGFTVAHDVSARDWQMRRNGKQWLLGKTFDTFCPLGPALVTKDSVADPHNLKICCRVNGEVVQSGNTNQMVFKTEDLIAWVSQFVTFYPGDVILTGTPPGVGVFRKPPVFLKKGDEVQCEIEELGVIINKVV
UniProt Q9NVI1: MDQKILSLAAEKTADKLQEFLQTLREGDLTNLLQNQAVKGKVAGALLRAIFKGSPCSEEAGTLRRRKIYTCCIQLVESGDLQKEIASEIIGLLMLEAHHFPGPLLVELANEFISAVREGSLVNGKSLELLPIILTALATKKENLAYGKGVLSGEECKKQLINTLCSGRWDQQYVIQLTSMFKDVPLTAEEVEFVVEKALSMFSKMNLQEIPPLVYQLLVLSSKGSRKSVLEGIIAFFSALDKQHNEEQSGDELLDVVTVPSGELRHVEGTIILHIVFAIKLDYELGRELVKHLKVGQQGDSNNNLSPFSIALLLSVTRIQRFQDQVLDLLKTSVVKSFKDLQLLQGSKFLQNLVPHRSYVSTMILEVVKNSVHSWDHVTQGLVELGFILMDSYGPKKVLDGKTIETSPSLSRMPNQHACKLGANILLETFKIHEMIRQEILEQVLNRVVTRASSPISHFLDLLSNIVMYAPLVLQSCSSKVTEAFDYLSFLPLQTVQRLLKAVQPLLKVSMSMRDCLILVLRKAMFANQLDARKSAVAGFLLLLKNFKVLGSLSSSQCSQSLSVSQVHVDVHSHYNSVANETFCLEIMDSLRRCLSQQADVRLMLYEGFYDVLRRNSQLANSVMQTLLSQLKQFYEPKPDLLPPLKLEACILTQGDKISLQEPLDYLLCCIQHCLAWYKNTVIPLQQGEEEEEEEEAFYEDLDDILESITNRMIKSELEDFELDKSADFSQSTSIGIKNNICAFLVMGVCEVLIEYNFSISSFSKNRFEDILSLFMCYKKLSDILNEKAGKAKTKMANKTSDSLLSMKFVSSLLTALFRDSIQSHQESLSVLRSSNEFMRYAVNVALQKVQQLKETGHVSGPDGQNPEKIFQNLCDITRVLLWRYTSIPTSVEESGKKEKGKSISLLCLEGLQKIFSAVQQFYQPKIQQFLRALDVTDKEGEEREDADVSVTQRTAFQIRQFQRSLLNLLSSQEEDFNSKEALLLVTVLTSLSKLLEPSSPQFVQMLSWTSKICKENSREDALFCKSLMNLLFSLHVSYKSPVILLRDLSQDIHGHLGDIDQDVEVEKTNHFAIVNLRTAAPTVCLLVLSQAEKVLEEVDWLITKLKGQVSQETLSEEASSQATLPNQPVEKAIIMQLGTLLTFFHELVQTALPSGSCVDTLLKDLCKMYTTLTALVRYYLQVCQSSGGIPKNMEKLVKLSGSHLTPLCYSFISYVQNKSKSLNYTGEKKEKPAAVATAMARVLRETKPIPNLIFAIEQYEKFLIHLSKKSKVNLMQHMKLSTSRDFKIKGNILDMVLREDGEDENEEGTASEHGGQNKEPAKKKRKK
UniProt Q9Y2J2: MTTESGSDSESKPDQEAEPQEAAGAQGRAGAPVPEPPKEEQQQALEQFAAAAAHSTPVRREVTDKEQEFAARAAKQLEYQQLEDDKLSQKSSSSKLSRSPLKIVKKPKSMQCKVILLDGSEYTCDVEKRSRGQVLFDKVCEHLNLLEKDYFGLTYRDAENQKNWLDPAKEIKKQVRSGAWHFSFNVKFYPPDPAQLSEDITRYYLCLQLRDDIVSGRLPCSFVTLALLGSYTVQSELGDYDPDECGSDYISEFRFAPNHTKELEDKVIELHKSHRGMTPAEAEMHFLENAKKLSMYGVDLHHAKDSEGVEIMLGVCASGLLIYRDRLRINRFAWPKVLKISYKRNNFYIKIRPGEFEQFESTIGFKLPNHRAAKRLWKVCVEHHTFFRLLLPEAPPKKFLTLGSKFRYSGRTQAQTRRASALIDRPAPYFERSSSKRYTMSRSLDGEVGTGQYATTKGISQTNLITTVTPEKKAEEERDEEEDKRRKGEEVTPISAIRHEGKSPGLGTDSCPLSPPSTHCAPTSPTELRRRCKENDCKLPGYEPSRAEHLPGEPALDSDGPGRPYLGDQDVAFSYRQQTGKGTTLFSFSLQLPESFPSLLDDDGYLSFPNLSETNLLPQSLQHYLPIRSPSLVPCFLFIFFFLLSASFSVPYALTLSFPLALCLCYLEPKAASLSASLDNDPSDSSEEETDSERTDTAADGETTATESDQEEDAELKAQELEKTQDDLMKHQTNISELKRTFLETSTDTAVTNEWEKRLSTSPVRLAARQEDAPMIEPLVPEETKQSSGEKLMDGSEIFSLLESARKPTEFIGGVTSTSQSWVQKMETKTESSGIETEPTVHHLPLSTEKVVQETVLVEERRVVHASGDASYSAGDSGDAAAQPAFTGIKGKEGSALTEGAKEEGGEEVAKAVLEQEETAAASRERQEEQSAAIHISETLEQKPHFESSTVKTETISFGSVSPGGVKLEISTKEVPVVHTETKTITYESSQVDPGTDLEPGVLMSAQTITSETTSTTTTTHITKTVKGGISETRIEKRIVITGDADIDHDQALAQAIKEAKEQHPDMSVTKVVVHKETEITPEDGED
UniProt Q9NYF3: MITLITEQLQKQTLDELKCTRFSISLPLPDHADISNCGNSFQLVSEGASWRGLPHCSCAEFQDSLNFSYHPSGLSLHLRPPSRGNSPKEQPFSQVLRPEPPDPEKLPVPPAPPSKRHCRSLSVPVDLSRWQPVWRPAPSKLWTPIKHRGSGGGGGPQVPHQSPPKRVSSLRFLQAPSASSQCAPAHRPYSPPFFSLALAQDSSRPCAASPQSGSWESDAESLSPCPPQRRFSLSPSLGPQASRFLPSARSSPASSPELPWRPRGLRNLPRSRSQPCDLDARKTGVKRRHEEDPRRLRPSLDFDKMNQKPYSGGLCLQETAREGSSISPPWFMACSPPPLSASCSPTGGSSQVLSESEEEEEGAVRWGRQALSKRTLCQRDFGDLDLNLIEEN

Experiments:
[1] = compound: ClCC(=O)N[C@@H]1CCCc2ccccc12; test: log2 mean competition ratio of IA-DTB cysteine labelling (DMSO/compound) (log2 ratio); higher = stronger cysteine engagement by compound; settings: treatment time: 4 h, cell line lysate: HEK293T
Procedure: (§1)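 IA-DTB competitive cysteine chemoproteomics in HEK293T RIPA lysate. Lysates were treated with compound 29 or 30 at 50 or 200 µM for 4 h, then IA-DTB (500 µM, 1 h), trypsin-digested, NeutrAvidin-enriched and analysed by diaPASEF. Competition ratio = intensity DMSO / intensity compound (n=4 treated, n=64 DMSO); binding: mean log2 CR ≥ 1 and p ≤ 0.05 plus QC filters. Target is the cysteine site.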

[2] = compound: ClCC(=O)N[C@H]1CCCc2ccccc12; test: as above; settings: treatment time: 4 h, cell line lysate: HEK293T
Procedure: as §1

Target | log2 mean competition ratio ([1]; 50 µM) | log2 mean competition ratio ([1]; 200 µM) | log2 mean competition ratio ([2]; 50 µM) | log2 mean competition ratio ([2]; 200 µM)
EXOC1 C114 (UniProt Q9NV70) | 0.00341 | -0.403 | 0.0637 | -0.328
EXOC5 C576 (UniProt O00471) | 0.0869 | -0.418 | 0.172 | -0.51
EP400 C1775 (UniProt Q96L91) | 0.256 | -0.278 | 0.285 | -0.365
FAM177A1 C114 (UniProt Q8N128) | 0.00184 | -0.277 | -0.252 | -0.137
ERN1 C951 (UniProt O75460) | -0.0773 | 0.0514 | 0.131 | 0.0846
ESPL1 C57 (UniProt Q14674) | 0.148 | -0.0483 | 0.101 | 0.0418
FAHD2A C301 (UniProt Q96GK7) | -0.442 | -0.0165 | -0.447 | -0.0216
FAM114A2 C388 (UniProt Q9NRY5) | 0.201 | 0.0672 | 0.0101 | -0.357
ERCC2 C116 (UniProt P18074) | 0.195 | -0.302 | 0.0459 | -0.117
FAM120B C511 (UniProt Q96EK7) | -0.24 | -0.161 | 0.136 | -0.0191
ERCC2 C663 (UniProt P18074) | 0.103 | -0.3 | 0.397 | -0.239
FAM120C C354 (UniProt Q9NX05) | 0.0887 | 0.153 | -0.0248 | 0.125
ESCO1 C483 | -0.107 | -0.024 | -0.4 | -0.373
FANCI C650 (UniProt Q9NVI1) | -0.0714 | -0.336 | -0.183 | -0.16
EPB41L3 C124 (UniProt Q9Y2J2) | -0.0196 | 0.0956 | -0.153 | 0.141
FAM53C C276 (UniProt Q9NYF3) | 0.188 | 0.019 | 0.388 | 0.149

Some of the entries so far, with tabs:
Target	log2 mean competition ratio ([1]; 50 µM)	log2 mean competition ratio ([1]; 200 µM)	log2 mean competition ratio ([2]; 50 µM)	log2 mean competition ratio ([2]; 200 µM)
FAM177A1 C114 (UniProt Q8N128)	0.00184	-0.277	-0.252	-0.137
ESPL1 C57 (UniProt Q14674)	0.148	-0.0483	0.101	0.0418
